Measured values as given in doi:10.1101/2020.07.29.223594.

Molecular target: T1, APOBEC2 (Mus musculus) (UniProt Q9WV35)
T1 sequence (looked up, limits assumed): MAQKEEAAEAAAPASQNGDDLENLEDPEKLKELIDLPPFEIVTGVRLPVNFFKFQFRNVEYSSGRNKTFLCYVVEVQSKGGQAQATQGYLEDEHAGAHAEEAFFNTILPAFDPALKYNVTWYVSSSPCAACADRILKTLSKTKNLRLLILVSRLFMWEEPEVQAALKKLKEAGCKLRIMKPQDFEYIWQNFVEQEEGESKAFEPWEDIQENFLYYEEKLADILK
Test: MST
Conditions: Cy5-APOBEC2 50 nM

## GGCGGCGCGGCCCCGCCCCCTCCTCCGGC [SP/KLF motif ssDNA]
  Kd: 253 nM

The exact form of at least one protein or probe is not confirmed. Tags and fusion partners may be left off the protein sequences shown.
